The values below come from PubChem BioAssay AID493014 (National Center for Advancing Translational Sciences (NCATS), 2011).

The list shows a part of the results. Further columns of the screen follow, without active or inactive calls. Most of these compounds were active or inconclusive in the main read-out, so they are no random draw. Potencies come from curve fits of mixed quality, noted in brackets.

A short description of the assay: qHTS Assay to Find Inhibitors of Chronic Active B-Cell Receptor Signaling. The settings on record: ABC-DLBCL IkBa-CBG/CBR reporter, luminescence ratio (green luciferase fused to IkBa over red control in TMD8 lymphoma cells), 4 h. The gist of the method:
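TMD8 ABC-DLBCL cells carrying doxycycline-inducible green luciferase fused to IkappaBalpha plus unfused red luciferase were exposed to compounds (up to 46 uM) for 4 hrs at 37C. Activity came from the overlap-corrected green/red luminescence ratio.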

The mark [1] stands for this setting: measured here: CBR red luminescence, cell number.
Setting [2] is: measured here: IkBa-CBG green luminescence.

For orientation: AC50 means the midpoint of the concentration-response curve, whichever way the signal moves. With `COc1ccc(Cl)cc1NC(=O)CSc1nnc2[nH]c(=O)cc(-c3ccccc3)n12`, the AC50 under setting [1] was 10 µM [falling, partial curve, poor fit].
Regarding `Cc1ccccc1/C=C/C1=NCCN1`, under setting [1], the AC50 was 25.9 µM [falling, single point].
The same measure, in the same setting: with `COC(=O)c1ccc2c(=O)n3nc(Nc4cc(OC)ccc4OC)sc3nc2c1` the figure was 2.82 µM [falling, full curve]; with `CCn1c(NCc2cc(Br)ccc2NS(=O)(=O)c2ccc(C)cc2)nc2ccccc21`, 2.51 µM [rising, partial curve, poor fit].
On the same count and under the same terms, next, `CCOc1ccccc1NC(=O)CN(Cc1ccccc1)S(C)(=O)=O`: 3.66 µM [rising, partial curve, poor fit].
For `Cc1ccc(CNC(=O)c2cc3c(-c4ccc(Cl)cc4)nn(C)c3s2)o1`, the AC50 was 7.31 µM [falling, partial curve, poor fit] under setting [1] and 9.2 µM [rising, partial curve, poor fit] under setting [2].
On to `C=CCN=C(NC#N)SCCc1ccccc1`, for which the AC50 under setting [1] was 0.1 µM [rising, full curve, poor fit].
Consider `COc1cccc(C(=O)NNS(=O)(=O)c2ccc(F)cc2)c1`, for which the AC50 under setting [1] was 10 µM [falling, partial curve, poor fit].
Still for that read-out and setting: with `O=C(Cc1ccc(Br)cc1)Nc1cccc(Cl)c1` the figure was 11.2 µM [rising, partial curve, poor fit]; with `Nc1ncnc2c1ncn2CCc1ccccc1`, 15.8 µM [rising, single point].
In the case of `c1ccc(CCNc2nc(-c3ccccn3)cs2)cc1`, the AC50 runs as follows: under setting [1], 7.94 µM [falling, partial curve]; under setting [2], 35.5 µM [rising, partial curve, poor fit].
Consider `Cc1ccc(NC(=O)/C(=C\c2ccccc2)NC(=O)c2ccco2)cc1`, for which, under setting [1], the AC50 is 35.5 µM [rising, single point].
Still for that read-out and setting: with `C=CCc1ccccc1OCC(=O)N/N=C/c1ccc(OC(C)=O)cc1OC(C)=O` the figure was 7.31 µM [falling, partial curve].
Regarding `COc1ccc(/C=C2\NC(=S)N(CC3CCCO3)C2=O)c(OC)c1` (configuration not stated), the AC50 under setting [1] is 25.1 µM [rising, partial curve, poor fit].
With `C=CCn1c(SCC(=O)Nc2ccccc2OC)nnc1-c1ccco1`, the AC50 under setting [1] is 2.06 µM [falling, single point].
In the case of `Fc1ccc2nc(N3CCCC3)sc2c1`, the AC50 under setting [1] is 3.16 µM [rising, full curve].
On the same count and under the same terms, with `COC(=O)c1cc2sccc2n1CC(=O)Nc1cc(OC)cc(OC)c1` the figure was 7.08 µM [falling, partial curve]; with `Cc1ccc(S(=O)(=O)N2CCCC2C(=O)N2CCCCCC2)cc1` (configuration not stated), 6.51 µM [falling, partial curve, poor fit]; with `Cc1cccc(-n2cnc3cc(C(=O)NCc4ccccc4Cl)ccc32)c1`, 1.41 µM [rising, partial curve, poor fit].
Take `CCOC(=O)C1CCN(C(=O)Nc2ccc3nc(C)c(C)nc3c2)CC1`: the half-maximal activity concentration (AC50) under setting [1] is 18.4 µM [falling, partial curve].
Same read-out and setting: next, `NC(=O)c1ccccc1NC(=O)c1ccccc1F`: 0.82 µM [falling, single point].
In the case of `CCOc1ccc2[nH]c(=O)c(CN(Cc3ccccc3OC)C(=O)c3ccccc3)cc2c1`, the AC50 under setting [1] is 4.61 µM [falling, single point].
Regarding `Oc1ccc(Cl)cc1/C=N/c1nccs1`, under setting [1], the AC50 is 17.8 µM [falling, single point].
Regarding `Brc1ccc(-c2noc(-c3ccccn3)n2)o1`, the AC50 under setting [1] was 20 µM [falling, single point].
With `O=[N+]([O-])c1ccc(/C=C/c2ccc3cccc(O)c3n2)cc1`, the AC50 under setting [1] was 14.1 µM [falling, single point].
The same measure, in the same setting: with `Cc1ccc(NC(=O)c2ccn(C(=O)Nc3ccccc3)n2)c(C)c1` the figure was 11.2 µM [falling, partial curve, poor fit]; with `COC(=O)c1ccc(NC(=O)CO/N=C2\CCCc3nonc32)cc1`, 3.98 µM [rising, single point]; with `C=CC[C@@H](CC(=O)N(CCO)Cc1ccccc1)C(=O)N[C@H](COC(=O)[C@@H](CC=C)CC(=O)OC(C)(C)C)Cc1ccccc1`, 18.4 µM [falling, partial curve, poor fit].
Same read-out and setting: next, `S=c1[nH]nc(C2CCCCC2)n1/N=C/c1ccc(Br)cc1`: 17.8 µM [rising, single point].
`CC(=O)C1=C(O)C(=O)N(c2ccc(C(=O)O)cc2)C1c1ccccc1` (configuration not stated): the AC50 under setting [1] is 0.82 µM [falling, full curve, poor fit].
Turning to `COc1cccc(OCC(O)CN2CCN(CCO)CC2)c1` (configuration not stated), under setting [1], the AC50 was 13 µM [rising, partial curve, poor fit].
`COc1cccc(C(C(=O)NCC2CCCO2)N(C(=O)Cn2nnc3ccccc32)c2ccc(NC(C)=O)cc2)c1` (configuration not stated): the AC50 under setting [1] was 35.5 µM [rising, single point].
Regarding `CCC(C)(C)NCC(=O)Nc1ccc(OC(F)(F)F)cc1`, the AC50 under setting [1] is 5.8 µM [rising, partial curve, poor fit].
Take `Cc1ccc(Nc2ncnc3ccccc23)cc1`: the concentration at half-maximal activity (AC50) under setting [1] is 1.12 µM [rising, full curve, poor fit].
The same measure, in the same setting: with `Cc1nn(C)c(Oc2ccccc2)c1CCNC(=O)CCl` the figure was 17.8 µM [falling, partial curve, poor fit]; with `CS(=O)(=O)c1ccccc1-c1nc(-c2ccc(C(F)(F)F)cc2)no1`, 0.708 µM [rising, full curve, poor fit]; with `O=C(CSc1nnc2ccccn12)c1ccccc1`, 5.17 µM [falling, partial curve].
As to `COc1cccc2[nH]c(C(=O)NCCc3ccccc3)cc12`, the AC50 under setting [1] is 12.6 µM [falling, partial curve, poor fit].
For `COc1ccccc1/C=C/C1(C(=O)NC2CCCC2)CC(=O)N1c1ccccc1` (configuration not stated), the AC50 by setting is: under setting [1], 7.08 µM [falling, partial curve, poor fit]; under setting [2], 6.31 µM [rising, partial curve, poor fit].
Regarding `Cc1csc(NC(=O)CSc2nnc(C)c(=O)n2N)n1`, the AC50 under setting [1] was 11.2 µM [falling, partial curve, poor fit].
For `COC(C[C@H]1O[C@H]1C(=O)COCc1ccccc1)OC`, the AC50 under setting [1] is 35.5 µM [rising, single point].
On the same count and under the same terms, next, `Cc1cc(Nc2nc3ccccc3c3nnc(C)n23)ccc1Br`: 1.12 µM [rising, full curve, poor fit]; `COc1ccc(-n2c(CN3CCOCC3)nc3ccc([N+](=O)[O-])cc3c2=O)c(OC)c1`: 15.8 µM [rising, single point].
Turning to `Cc1[nH]nc(-c2ccc(O)cc2O)c1-c1ccc(Cl)cc1`, the AC50 under setting [1] is 35.5 µM [falling, single point].
Still for that read-out and setting: with `N#CC1=C2SC=C(c3ccc(Br)cc3)N2CCCC1=O` the figure was 1.58 µM [rising, partial curve].
In the case of `CCc1noc(C)c1C(=O)Nc1ncc(C)s1`, the AC50 under setting [1] is 0.164 µM [rising, full curve, poor fit].
Same read-out and setting: with `CCCn1c(SC/C(O)=C(\C#N)c2nc3ccccc3[nH]2)n[nH]c1=O` the figure was 7.94 µM [falling, partial curve]; with `O=C(COc1ccc(Cl)cc1)Nc1ccc2c(c1)C(=O)NC2=O`, 1.78 µM [falling, full curve, poor fit].
On the same count and under the same terms, with `Nc1c(C(=O)Nc2cccc(F)c2)nnn1-c1ccc2c(c1)OCCO2` the figure was 6.31 µM [falling, full curve, poor fit]; with `COCc1ccc(C(=O)NC2CC(C)(C)Cc3c2cnn3-c2ccc(C)cc2)o1` (configuration not stated), 35.5 µM [falling, single point].
`COC(=O)c1ccc(/C=N/Nc2nc3ccccc3[nH]2)cc1`: under setting [1], the AC50 is 35.5 µM [falling, single point].
On the same count and under the same terms, with `COc1ccc(O)c(C(=O)c2cnc3nc4ccccc4n3c2)c1` the figure was 0.58 µM [rising, full curve, poor fit].
Still for that read-out and setting: next, `CCOC(=O)C1CCN(C(=O)C2CCN(S(=O)(=O)c3c(C)noc3C)CC2)CC1`: 4.11 µM [falling, single point]; `CCOc1ccc(OCc2ccc(C(=O)N(CC)CC)cc2)cc1`: 20 µM [falling, partial curve, poor fit].
The same measure, in the same setting: with `CCC(=O)Nc1cccc(NC(=S)NC(=O)c2ccc(Cl)cc2Cl)c1` the figure was 6.51 µM [rising, single point]; with `CCOc1ccc(NC(=O)CN(C)CC(=O)NC(C)c2ccccc2)cc1OCC` (configuration not stated), 35.5 µM [rising, single point]; with `O=c1oc2ccccc2c2c1SC(C(F)(F)F)C2` (configuration not stated), 5.62 µM [rising, partial curve, poor fit].
Turning to `CCN1CCN(C(=O)CS(=O)(=O)Cc2nc(-c3ccc(C)cc3)oc2C)CC1`, the AC50 under setting [1] is 1.46 µM [rising, partial curve, poor fit].
For `CN(C)c1ccc(CN(C(=O)/C=C/c2ccccc2Cl)C2CCS(=O)(=O)C2)cc1` (configuration not stated), the AC50 under setting [1] is 35.5 µM [falling, single point].
On the same count and under the same terms, with `COC(=O)c1cc(NC(=O)Cc2coc3cc(OC)ccc23)cc(C(=O)OC)c1` the figure was 2.82 µM [falling, full curve].
As to `CCOC(=O)Cc1csc(NC(=S)NC(=O)c2ccccc2Br)n1`, under setting [2], the AC50 was 16.4 µM [falling, single point].
Regarding `CC(C)C[C@H]1CN=C(Nc2ccccc2)N1CC1CCCCC1`, the AC50 under setting [1] was 10 µM [falling, partial curve].
Consider `O=C(Nc1ccc(C(F)(F)F)cc1)c1cccc(-n2cnnn2)c1`, for which the AC50 under setting [1] was 2.31 µM [rising, partial curve, poor fit].
The same measure, in the same setting: with `O=C(CSc1nc(Cc2ccccc2)nc2ccccc12)c1ccc2c(c1)OCCO2` the figure was 23.1 µM [falling, partial curve, poor fit].
